Holding throughout (format): cell-based
In assay [1] the test system is breast cancer (MCF-7) cell line. The assay can be described thus: MTT in vitro antiproliferation assay, MCF-7. The following applies: Homo sapiens, MCF7, 24 h, read-out: IC50 ± SD MCF-7.
In assay [2] the test system is pancreatic cancer (ASPC-1) cell line. The assay can be described thus: MTT in vitro antiproliferation assay, ASPC-1. The following applies: Homo sapiens, ASPC1, 24 h, read-out: IC50 ± SD ASPC-1.
Assay [3] concerns lung normal (MRC-5) cell line. The assay can be described thus: MTT in vitro antiproliferation assay, MRC-5. To be noted: Homo sapiens, MRC5, 24 h, read-out: IC50 ± SD MRC-5.
For assay [4], the system named is lung cancer (A549) cell line. The assay can be described thus: MTT in vitro antiproliferation assay, A549. The following applies: Homo sapiens, A549, 24 h, read-out: IC50 ± SD A549.

Each structure is given as a SMILES string.

From paper PMC9575670 (Journal of Medicinal Chemistry, 2022) come the findings set out here.

By IC50 is commonly meant the concentration at which inhibition is half-maximal. Regarding `COc1cc2c(c(OC)c1OC)-c1ccc(OC)c(=O)cc1[C@@H](NC(C)=O)CC2` [CLC, colchicine], the IC50 in assay [1] is 8.34 µM; in assay [2], 10.4 µM; in assay [3] it was 14 µM; in assay [4], 9.63 µM.
